Results from patent US20150119435A1, “COMPOUNDS USEFUL FOR PROMOTING PROTEIN DEGRADATION AND METHODS USING SAME” (YALE UNIVERSITY, priority 2012, published 2015).
“Also recorded” adds a separate entry of the source. For at least one compound, name, drawing or mass did not settle the structure.

Assays:
[1] = system: androgen independent 22RV1 cell line; assay: Proliferation of androgen independent 22RV1 cells (CRPC model); type: cell-based; settings: 22RV1, 1 μM, four days
[2] = system: androgen dependent LnCAP cells; assay: Proliferation of androgen dependent LnCAP prostate cancer cells; type: cell-based; settings: 1 μM, several days
Source text: FIG. 26, comprising FIGS. 26A-26C, is a series of graphs illustrating in vitro activity of SARDS compounds. FIG. 26A: effect of SARDS on cell proliferation of LnCAPs. FIG. 26B: effect of SARDS on the proliferation of non-AR dependent cell lines. FIG. 26C: effect of SARDS on androgen independent prostate cancer cells.

For `CC1(C)C(=O)N(c2ccc(C#N)c(C(F)(F)F)c2)C(=S)N1CCCC(=O)NCCOCCOC(=O)CC12CC3CC(CC(C3)C1)C2` [SARD 279, 2-(2-(4-(3-(4-Cyano-3-(trifluoromethyl)phenyl)-5,5-dimethyl-4-oxo-2-thioxoimidazolidin-1-yl)butanamido)ethoxy)ethyl 2-(adamantan-1-yl)acetate], the “Proliferation compared to vehicle-treated cells” value [1] was “attenuated proliferation” and the “Cell growth / proliferation of LnCAP cells” value [2] was “significantly attenuated cell growth; also recorded: almost complete cell death”.
